Data published in the supplement of paper PMC10849652.
This is one part of the list.

Chains of the proteins cited; added tags and fusions are not shown. Lines headed by an entry give the natural chain unless they say otherwise; changes in a name come on top.
UniProt O15498: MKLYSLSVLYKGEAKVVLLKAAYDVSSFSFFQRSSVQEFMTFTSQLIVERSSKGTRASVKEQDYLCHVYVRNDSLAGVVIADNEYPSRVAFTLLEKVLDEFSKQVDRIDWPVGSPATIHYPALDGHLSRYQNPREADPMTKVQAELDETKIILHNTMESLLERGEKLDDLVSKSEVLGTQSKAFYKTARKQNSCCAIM
UniProt Q5VVQ6: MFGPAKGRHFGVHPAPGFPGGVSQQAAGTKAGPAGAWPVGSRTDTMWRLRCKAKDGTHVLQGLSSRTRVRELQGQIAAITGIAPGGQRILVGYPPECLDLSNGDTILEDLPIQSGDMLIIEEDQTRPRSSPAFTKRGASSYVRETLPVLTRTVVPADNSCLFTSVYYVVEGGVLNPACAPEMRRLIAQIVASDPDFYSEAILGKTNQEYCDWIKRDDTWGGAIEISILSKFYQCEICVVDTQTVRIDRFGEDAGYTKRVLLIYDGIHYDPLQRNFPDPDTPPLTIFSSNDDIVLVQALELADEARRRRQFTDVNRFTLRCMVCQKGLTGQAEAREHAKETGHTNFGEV
UniProt Q9H8U3: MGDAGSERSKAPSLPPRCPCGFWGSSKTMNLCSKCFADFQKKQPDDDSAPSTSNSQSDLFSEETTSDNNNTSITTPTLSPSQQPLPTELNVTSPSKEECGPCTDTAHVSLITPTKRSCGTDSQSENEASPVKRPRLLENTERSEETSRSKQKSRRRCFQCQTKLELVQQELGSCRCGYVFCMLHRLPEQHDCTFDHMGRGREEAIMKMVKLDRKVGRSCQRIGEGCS
UniProt Q9BQ24: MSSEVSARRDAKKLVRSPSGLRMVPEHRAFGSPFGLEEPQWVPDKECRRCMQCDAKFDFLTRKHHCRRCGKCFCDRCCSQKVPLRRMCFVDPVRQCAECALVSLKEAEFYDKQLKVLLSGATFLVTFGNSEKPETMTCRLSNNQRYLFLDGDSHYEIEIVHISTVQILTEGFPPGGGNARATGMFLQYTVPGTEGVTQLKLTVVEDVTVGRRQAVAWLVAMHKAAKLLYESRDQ
UniProt Q9NP64: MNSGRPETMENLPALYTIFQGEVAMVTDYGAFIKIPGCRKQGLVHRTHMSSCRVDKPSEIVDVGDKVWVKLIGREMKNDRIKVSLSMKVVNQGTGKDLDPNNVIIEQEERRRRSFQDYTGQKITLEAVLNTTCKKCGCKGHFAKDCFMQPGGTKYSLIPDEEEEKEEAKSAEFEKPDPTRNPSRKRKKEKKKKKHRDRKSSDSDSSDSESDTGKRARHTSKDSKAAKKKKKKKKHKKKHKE
UniProt Q9BSR8: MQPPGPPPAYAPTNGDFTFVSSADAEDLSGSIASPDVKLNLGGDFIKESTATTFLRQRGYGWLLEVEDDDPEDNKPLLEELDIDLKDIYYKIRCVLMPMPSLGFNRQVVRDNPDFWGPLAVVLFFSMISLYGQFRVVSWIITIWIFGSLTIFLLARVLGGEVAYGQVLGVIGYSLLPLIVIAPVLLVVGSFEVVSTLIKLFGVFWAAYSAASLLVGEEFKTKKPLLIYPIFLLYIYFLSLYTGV
UniProt Q9UBH6: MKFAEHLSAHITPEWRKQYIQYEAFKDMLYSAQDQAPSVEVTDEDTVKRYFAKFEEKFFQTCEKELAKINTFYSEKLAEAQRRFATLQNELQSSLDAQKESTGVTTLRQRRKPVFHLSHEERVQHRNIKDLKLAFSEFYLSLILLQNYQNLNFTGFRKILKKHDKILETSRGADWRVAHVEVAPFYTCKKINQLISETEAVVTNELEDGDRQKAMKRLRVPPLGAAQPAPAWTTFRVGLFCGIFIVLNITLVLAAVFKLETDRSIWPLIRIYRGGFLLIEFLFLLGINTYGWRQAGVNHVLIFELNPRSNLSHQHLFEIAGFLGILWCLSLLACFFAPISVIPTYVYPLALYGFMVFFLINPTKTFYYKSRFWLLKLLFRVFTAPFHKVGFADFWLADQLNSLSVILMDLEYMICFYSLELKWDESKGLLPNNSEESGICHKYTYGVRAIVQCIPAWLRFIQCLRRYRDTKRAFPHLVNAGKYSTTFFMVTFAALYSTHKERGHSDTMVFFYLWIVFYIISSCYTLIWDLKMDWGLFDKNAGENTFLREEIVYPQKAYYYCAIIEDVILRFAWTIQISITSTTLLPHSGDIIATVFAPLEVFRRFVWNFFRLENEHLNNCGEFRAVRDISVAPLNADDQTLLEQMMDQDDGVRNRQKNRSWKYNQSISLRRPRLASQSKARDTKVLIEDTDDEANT
UniProt Q9C0B5: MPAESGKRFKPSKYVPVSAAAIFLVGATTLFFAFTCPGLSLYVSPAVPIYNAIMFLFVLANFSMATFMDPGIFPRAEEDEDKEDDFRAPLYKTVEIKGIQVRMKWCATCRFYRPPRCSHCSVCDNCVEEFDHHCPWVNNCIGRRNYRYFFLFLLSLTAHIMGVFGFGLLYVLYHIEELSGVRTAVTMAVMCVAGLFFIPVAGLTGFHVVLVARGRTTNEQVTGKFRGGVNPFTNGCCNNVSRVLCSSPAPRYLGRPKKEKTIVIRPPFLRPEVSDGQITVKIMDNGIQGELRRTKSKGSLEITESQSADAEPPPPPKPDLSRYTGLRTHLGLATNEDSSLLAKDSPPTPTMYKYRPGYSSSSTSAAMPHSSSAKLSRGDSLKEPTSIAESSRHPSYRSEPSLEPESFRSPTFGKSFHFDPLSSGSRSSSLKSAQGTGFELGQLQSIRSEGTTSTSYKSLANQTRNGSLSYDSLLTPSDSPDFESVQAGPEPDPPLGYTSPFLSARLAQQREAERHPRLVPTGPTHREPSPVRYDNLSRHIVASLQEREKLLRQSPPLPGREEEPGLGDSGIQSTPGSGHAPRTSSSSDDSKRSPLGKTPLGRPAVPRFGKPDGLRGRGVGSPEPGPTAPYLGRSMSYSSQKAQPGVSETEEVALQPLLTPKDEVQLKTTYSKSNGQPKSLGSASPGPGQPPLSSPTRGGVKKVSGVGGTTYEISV
UniProt O95405: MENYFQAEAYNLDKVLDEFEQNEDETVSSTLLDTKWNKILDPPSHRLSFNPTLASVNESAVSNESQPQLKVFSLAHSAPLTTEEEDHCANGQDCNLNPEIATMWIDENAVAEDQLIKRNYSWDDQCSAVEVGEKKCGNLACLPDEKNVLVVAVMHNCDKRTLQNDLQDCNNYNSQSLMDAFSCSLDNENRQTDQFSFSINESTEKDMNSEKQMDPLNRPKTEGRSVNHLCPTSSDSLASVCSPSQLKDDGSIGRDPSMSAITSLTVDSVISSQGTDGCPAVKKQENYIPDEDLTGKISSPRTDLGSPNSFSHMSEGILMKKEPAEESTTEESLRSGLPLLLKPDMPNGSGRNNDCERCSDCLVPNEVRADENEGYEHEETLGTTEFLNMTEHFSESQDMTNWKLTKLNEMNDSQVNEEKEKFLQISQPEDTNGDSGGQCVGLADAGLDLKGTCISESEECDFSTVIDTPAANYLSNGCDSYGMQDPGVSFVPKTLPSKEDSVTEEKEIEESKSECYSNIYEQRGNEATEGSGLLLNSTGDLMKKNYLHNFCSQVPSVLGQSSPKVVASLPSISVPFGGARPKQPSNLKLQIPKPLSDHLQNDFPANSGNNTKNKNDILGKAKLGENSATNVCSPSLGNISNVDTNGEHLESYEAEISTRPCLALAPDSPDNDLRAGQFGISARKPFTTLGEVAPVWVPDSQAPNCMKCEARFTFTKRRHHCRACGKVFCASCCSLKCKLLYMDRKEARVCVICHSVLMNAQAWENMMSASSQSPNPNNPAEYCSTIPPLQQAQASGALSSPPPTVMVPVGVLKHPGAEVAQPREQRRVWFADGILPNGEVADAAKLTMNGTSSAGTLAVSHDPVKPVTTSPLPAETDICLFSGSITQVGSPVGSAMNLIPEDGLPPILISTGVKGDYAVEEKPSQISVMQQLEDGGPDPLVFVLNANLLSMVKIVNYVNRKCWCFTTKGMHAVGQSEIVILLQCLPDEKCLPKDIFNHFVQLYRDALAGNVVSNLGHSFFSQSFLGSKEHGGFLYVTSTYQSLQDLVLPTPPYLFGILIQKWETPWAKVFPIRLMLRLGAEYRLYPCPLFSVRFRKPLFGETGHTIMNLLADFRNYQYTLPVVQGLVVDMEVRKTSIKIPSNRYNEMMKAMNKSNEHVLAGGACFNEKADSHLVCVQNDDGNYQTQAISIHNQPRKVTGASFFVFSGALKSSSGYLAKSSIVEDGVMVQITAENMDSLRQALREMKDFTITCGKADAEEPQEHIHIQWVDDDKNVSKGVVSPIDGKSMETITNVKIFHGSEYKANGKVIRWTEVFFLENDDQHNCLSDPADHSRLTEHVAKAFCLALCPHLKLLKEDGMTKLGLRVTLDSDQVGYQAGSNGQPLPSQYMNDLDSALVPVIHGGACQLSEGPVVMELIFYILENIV
UniProt Q7Z739: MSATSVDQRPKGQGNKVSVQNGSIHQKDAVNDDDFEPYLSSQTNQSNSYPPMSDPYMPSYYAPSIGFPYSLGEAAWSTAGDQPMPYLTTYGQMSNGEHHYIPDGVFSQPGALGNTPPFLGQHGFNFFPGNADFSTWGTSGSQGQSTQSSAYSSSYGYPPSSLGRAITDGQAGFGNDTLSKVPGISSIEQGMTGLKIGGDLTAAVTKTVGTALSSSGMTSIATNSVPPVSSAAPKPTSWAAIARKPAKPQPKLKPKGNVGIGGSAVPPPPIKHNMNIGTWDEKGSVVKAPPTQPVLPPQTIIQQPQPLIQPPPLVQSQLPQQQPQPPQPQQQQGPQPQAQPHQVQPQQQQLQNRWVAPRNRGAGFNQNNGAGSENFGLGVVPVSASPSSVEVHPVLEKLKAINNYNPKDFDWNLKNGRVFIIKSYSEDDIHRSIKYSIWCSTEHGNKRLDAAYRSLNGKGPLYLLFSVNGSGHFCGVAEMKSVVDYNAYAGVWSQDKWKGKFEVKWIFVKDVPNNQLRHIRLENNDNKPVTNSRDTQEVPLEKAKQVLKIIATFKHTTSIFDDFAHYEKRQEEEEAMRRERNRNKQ
UniProt Q5T200: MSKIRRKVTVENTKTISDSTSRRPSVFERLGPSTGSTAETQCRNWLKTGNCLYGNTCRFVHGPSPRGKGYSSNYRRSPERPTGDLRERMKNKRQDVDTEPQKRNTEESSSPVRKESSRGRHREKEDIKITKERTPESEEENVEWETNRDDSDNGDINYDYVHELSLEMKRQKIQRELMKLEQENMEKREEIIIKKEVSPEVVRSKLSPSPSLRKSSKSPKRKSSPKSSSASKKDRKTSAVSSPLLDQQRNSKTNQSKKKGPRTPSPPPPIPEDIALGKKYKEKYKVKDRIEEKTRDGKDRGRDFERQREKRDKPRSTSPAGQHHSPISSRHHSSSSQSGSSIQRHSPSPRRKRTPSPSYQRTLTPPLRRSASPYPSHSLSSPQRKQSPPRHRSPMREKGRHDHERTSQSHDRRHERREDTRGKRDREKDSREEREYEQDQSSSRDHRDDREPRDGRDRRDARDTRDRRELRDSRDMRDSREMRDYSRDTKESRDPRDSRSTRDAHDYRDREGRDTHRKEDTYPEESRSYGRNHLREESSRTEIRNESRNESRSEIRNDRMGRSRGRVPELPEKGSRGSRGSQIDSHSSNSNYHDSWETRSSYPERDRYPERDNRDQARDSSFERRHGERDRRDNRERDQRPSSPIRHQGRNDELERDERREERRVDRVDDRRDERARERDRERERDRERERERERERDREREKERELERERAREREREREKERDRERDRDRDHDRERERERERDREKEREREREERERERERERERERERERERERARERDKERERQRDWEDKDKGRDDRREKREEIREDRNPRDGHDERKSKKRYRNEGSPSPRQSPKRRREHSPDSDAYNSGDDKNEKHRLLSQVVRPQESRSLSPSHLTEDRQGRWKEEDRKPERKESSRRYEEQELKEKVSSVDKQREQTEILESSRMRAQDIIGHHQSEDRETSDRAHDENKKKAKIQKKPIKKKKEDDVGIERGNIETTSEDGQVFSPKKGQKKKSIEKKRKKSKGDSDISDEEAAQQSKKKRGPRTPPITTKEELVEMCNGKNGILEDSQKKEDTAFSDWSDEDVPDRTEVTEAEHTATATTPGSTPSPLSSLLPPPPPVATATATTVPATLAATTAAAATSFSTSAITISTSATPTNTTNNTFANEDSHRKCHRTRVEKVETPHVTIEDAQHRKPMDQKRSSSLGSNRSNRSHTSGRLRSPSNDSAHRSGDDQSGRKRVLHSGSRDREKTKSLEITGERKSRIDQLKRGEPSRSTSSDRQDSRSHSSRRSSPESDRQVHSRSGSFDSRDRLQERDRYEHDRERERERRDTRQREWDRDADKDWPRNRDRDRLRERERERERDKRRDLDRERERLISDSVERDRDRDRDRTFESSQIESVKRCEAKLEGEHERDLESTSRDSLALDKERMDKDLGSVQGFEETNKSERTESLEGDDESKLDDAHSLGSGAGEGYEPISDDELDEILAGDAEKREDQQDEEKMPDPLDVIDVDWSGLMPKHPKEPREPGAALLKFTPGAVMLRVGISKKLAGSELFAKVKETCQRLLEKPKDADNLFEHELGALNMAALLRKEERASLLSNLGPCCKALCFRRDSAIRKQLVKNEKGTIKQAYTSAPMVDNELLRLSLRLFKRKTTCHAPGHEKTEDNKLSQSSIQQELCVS

Compound: C[C@H](C1=CC=C(C=C1)C(=O)NC2=C3C=CNC3=NC=C2)N
Assay: log2 fold change, soluble protein after heating vs DMSO (PISA); higher = thermal stabilisation; K562 lysate, 10 uM; active = over 0.2 and 3.5 SD of the protein, either way, in both replicates (recomputed)
Summary of the method: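 Pellets of K562 cells were dounce-homogenised in PBS pH 7.4 with 1 mM MgCl2, and the crude extract was held at 1 mg/mL protein for a 30 min treatment with 10 μM compound. Aliquots were heated for 3 min over 48°C-58°C and pooled before NP-40 was added to 0.5% at 4°C. The supernatant from 21,000xg for 90 min was quantified by TMTpro 16plex LC-MS/MS with channel sums equalised. Values are reported from duplicates as log-two fold change in thermal stability relative to solvent controls.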

Row | Target | log2 fold change
1 | YKT6 (UniProt O15498) | inactive: 0.06
2 | ZFC3H1 (UniProt O60293) | inactive: -0.099
3 | ZBTB24 (UniProt O43167) | inactive: 0.116
4 | XYLB (UniProt O75191) | inactive: 0.035
5 | XPO7 (UniProt Q9UIA9) | inactive: -0.04
6 | XRCC1 (UniProt P18887) | inactive: 0.111
7 | YPEL5 (UniProt P62699) | inactive: 0.032
8 | YOD1 (UniProt Q5VVQ6) | inactive: -0.017
9 | ZBTB10 (UniProt Q96DT7) | inactive: -0.016
10 | YBX3 (UniProt P16989) | inactive: -0.026
11 | YAF2 isoform 5 (UniProt Q8IY57) | inactive: 0.177
12 | XRCC4 (UniProt Q13426) | inactive: -0.084
13 | ZFAND3 (UniProt Q9H8U3) | inactive: 0.114
14 | ZBTB8OS (UniProt Q8IWT0) | inactive: -0.096
15 | XRN1 (UniProt Q8IZH2) | inactive: -0.009
16 | ZFYVE21 isoform 2 (UniProt Q9BQ24) | inactive: -0.057
17 | ZCCHC17 (UniProt Q9NP64) | inactive: -0.002
18 | YIPF4 (UniProt Q9BSR8) | inactive: -0.007
19 | XPR1 (UniProt Q9UBH6) | inactive: 0.048

Row | Target | log2 fold change
20 | YWHAQ (UniProt P27348) | active: 0.466
21 | ZDHHC20 (UniProt Q5W0Z9) | inactive: -0.001
22 | YTHDF1 (UniProt Q9BYJ9) | inactive: -0.119
23 | ZDHHC5 (UniProt Q9C0B5) | inactive: 0
24 | YIF1B (UniProt Q5BJH7) | inactive: -0.08
25 | ZC3H14 (UniProt Q6PJT7) | inactive: -0.025
26 | YLPM1 (UniProt P49750) | inactive: 0.147
27 | ZBED1 (UniProt O96006) | inactive: 0.016
28 | ZFYVE9 (UniProt O95405) | inactive: -0.027
29 | YARS2 (UniProt Q9Y2Z4) | inactive: -0.05
30 | YWHAH (UniProt Q04917) | inactive: 0.21
31 | ZC3H8 (UniProt Q8N5P1) | inactive: 0.056
32 | XPO6 (UniProt Q96QU8) | inactive: -0.158
33 | XRCC5 (UniProt P13010) | inactive: 0.068
34 | ZCCHC3 (UniProt Q9NUD5) | inactive: -0.056
35 | YTHDF3 (UniProt Q7Z739) | inactive: -0.035
36 | YME1L1 (UniProt Q96TA2) | inactive: 0.01
37 | ZC3H13 (UniProt Q5T200) | inactive: 0.039
38 | ZBTB21 (UniProt Q9ULJ3) | inactive: -0.095

Laid out differently: results already given

| Row | Target | log2 fold change |
| --- | --- | --- |
| 23 | ZDHHC5 (UniProt Q9C0B5) | inactive: 0 |
| 24 | YIF1B (UniProt Q5BJH7) | inactive: -0.08 |
| 25 | ZC3H14 (UniProt Q6PJT7) | inactive: -0.025 |
| 26 | YLPM1 (UniProt P49750) | inactive: 0.147 |
| 27 | ZBED1 (UniProt O96006) | inactive: 0.016 |
| 28 | ZFYVE9 (UniProt O95405) | inactive: -0.027 |
| 29 | YARS2 (UniProt Q9Y2Z4) | inactive: -0.05 |
| 30 | YWHAH (UniProt Q04917) | inactive: 0.21 |
